Laboratory results reported in patent publication US5843941A, “Ras farnesyl transferase inhibitors” (Genentech, Inc., priority 1994, dated 1998).
Where two headings read alike, the source gives them in different places. At least one read-out could not be matched to a standard name with certainty.

Chains of the proteins cited; added tags and fusions are not shown.
UniProt Q02293, whole entry: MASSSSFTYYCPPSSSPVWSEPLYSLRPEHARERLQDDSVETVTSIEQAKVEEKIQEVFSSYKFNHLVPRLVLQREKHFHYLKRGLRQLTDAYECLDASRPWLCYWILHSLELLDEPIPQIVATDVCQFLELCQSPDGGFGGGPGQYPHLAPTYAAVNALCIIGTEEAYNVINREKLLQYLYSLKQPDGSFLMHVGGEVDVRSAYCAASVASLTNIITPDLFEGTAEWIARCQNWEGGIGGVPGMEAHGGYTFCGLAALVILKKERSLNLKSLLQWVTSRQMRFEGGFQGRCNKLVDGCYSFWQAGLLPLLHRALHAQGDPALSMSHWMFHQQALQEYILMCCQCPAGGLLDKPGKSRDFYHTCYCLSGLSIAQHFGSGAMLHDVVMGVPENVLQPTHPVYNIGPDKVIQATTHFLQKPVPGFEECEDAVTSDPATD

Molecular target: CAAX farnesyltransferase (Rattus norvegicus, UniProt Q02293+Q04631)
Assay: In vitro inhibition of CAAX farnesyltransferase
Format: biochemical
Parameters: purified to homogeneity from rat brain homogenates; from tissue; host or cells: rat brain; alternatively recombinant enzyme from a baculovirus expression system
Conditions: Table D
Protocol: All compounds were tested for in vitro inhibition of CAAX protein farnesyltransferase. […] Alternatively, recombinant CAAX protein farnesyltransferase was also used in this assay. […] Seventy-two hrs after infection, the cells were harvested and disrupted and the enzyme isolated by chromatography on Q-Sepharose.
After incubation for 30 min at 37° C., the amount of [3H]famesyl group transferred to p21H-ras was measured by precipitation with SDS/trichloroacetic acid, filtration onto nitrocellulose, and scintillation counting.
Structures of the compounds tested are reproduced below. Compound numbers also refer to example numbers above.

[1] = diastereomer A, read-out: EC50 (μM) "A"
[2] = diastereomer B, read-out: EC50 (μM) "B"

| Structure (SMILES) | EC50 [1] [µM] | EC50 [2] [µM] |
| --- | --- | --- |
| CC[C@H](C)[C@H](NC(=O)CN1C(=O)C(N(C)C(=O)[C@@H](N)CS)N=C(c2ccccc2)c2ccccc21)C(=O)O (stereo partly drawn) [compound 55, N-[[3-[(2-amino-3-mercapto-1-oxopropyl)methylamino]-2,3-dihydro-2-oxo-5-phenyl-1H-1,4-benzodiazepin-1-yl]acetyl]-L-isoleucine] | 0.6 | 0.0006 |
| CN(C(=O)[C@@H](N)CS)C1N=C(c2ccccc2)c2ccccc2N(CC(=O)N[C@@H](Cc2c[nH]c3ccccc23)C(=O)O)C1=O (stereo partly drawn) [compound 56, N-[[3-[(2-amino-3-mercapto-1-oxopropyl)methylamino]-2,3-dihydro-2-oxo-5-phenyl-1H-1,4-benzodiazepin-1-yl]acetyl]-L-tryptophane] | 0.5 | 0.0005 |
| CN(C(=O)[C@@H](N)CS)C1N=C(c2ccccc2)c2cc(Cl)ccc2N(Cc2ccc(F)cc2F)C1=O (stereo partly drawn) [compound 105, N-[[3-[(2-amino-3-mercapto-1-oxopropyl)methylamino]-2,3-dihydro-2-oxo-5-phenyl-7-chloro-1H-1,4-benzodiazepin-1-yl]methyl]-2,4-difluorobenzene] | 2 | 0.02 |
